Reference: patent publication US20110189308A1, “METHODS TO TREAT NEURODEGENERATIVE CONDITIONS OR DISEASES BY TARGETING COMPONENTS OF A PTEN SIGNALING PATHWAY” (priority 2008, published 2011)
For at least one compound, name, drawing or mass did not settle the structure.

Experiments:
[1] = tested on: primary cortical cultures from (Atg7^flox/flox) mice; test: Process length in primary cortical cultures from Atg7 flox/flox mice transfected with Cre plasmid, with PI3K inhibitors; type: cell-based, mouse; conditions: FIG. 16B; 10 μM Wortmannin or 50 μM LY294002
Source text: FIGS. 16A-16D. Primary midbrain neuronal cultures from autophagy-deficient Dat^Cre/+Atg7^flox/flox mice display prolonged neurites. FIG. 16A, Elongated processes in TH-positive neurons in primary midbrain cultures from autophagy-deficient (Dat^Cre/+Atg7^flox/flox) mice relative to controls (Dat^Cre/+Atg7^flox/wild). FIG. 16B, The elongated process phenotype is also apparent in primary cortical cultures from (Atg7^flox/flox) mice transfected with Cre-recombinase encoding plasmid (along with GFP plasmid) compared to primary neurons transfected with GFP plasmid alone. […] FIG. 16C, Quantitation of process length as in (A). Dat^Cre/+Atg7^flox/wild versus Dat^Cre/+Atg7^flox/flox; 0.933±0.098 mm versus 1.704±0.139 mm, p<0.01. n>49 neurons per group in at least three separate independent experiments. FIG. 16D, quantification of data as in (C). Dat^Cre/+Atg7^flox/wild versus Dat^Cre/+Atg7^flox/flox; 0.428±0.036 mm versus 0.721±0.073 mm (DMSO), 0.198±0.018 mm versus 0.217±0.021 mm (Wortmannin, WM), and 0.158±0.015 mm versus 0.176±0.018 mm (LY294002, LY). n>45 neurons per group in at least three separate independent experiments. Bar, 50 μm.**, P<0.01.
Cell Culture. For midbrain culture, midbrain tissues were dissected from newborn mice (postnatal 0 day). The tissues were minced and digested in isolation medium containing 0.25% trypsin and ascorbic acid at 37° C. for 30 min. […]

[2] = tested on: primary midbrain cultures from Atg7-deficient mice; test: Neurite process length in primary midbrain cultures from Atg7-deficient mice; type: cell-based, mouse; conditions: Atg7-deficient cultures relative to controls (FIG. 16)

Structure (SMILES) | effect on elongated process length phenotype [1] | effect on increased neurite process length phenotype [2]
COC[C@H]1OC(=O)c2coc3c2[C@@]1(C)C1=C(C3=O)[C@@H]2CCC(=O)[C@@]2(C)C[C@H]1OC(C)=O [Wortmannin] | reversed the process length phenotype | suppressed
O=c1cc(N2CCOCC2)oc2c(-c3ccccc3)cccc12 [LY294002] | reversed the process length phenotype | suppressed
